Reference: PMC7372886
No constants are given. Whether binding was seen depends on the method and setting. In cells and extracts the contact can be indirect. Some binding calls cover weakened binding; strength is not graded here.

Sequences of proteins named here, by UniProt entry; tags and fusion partners are left off.
UniProt P49327: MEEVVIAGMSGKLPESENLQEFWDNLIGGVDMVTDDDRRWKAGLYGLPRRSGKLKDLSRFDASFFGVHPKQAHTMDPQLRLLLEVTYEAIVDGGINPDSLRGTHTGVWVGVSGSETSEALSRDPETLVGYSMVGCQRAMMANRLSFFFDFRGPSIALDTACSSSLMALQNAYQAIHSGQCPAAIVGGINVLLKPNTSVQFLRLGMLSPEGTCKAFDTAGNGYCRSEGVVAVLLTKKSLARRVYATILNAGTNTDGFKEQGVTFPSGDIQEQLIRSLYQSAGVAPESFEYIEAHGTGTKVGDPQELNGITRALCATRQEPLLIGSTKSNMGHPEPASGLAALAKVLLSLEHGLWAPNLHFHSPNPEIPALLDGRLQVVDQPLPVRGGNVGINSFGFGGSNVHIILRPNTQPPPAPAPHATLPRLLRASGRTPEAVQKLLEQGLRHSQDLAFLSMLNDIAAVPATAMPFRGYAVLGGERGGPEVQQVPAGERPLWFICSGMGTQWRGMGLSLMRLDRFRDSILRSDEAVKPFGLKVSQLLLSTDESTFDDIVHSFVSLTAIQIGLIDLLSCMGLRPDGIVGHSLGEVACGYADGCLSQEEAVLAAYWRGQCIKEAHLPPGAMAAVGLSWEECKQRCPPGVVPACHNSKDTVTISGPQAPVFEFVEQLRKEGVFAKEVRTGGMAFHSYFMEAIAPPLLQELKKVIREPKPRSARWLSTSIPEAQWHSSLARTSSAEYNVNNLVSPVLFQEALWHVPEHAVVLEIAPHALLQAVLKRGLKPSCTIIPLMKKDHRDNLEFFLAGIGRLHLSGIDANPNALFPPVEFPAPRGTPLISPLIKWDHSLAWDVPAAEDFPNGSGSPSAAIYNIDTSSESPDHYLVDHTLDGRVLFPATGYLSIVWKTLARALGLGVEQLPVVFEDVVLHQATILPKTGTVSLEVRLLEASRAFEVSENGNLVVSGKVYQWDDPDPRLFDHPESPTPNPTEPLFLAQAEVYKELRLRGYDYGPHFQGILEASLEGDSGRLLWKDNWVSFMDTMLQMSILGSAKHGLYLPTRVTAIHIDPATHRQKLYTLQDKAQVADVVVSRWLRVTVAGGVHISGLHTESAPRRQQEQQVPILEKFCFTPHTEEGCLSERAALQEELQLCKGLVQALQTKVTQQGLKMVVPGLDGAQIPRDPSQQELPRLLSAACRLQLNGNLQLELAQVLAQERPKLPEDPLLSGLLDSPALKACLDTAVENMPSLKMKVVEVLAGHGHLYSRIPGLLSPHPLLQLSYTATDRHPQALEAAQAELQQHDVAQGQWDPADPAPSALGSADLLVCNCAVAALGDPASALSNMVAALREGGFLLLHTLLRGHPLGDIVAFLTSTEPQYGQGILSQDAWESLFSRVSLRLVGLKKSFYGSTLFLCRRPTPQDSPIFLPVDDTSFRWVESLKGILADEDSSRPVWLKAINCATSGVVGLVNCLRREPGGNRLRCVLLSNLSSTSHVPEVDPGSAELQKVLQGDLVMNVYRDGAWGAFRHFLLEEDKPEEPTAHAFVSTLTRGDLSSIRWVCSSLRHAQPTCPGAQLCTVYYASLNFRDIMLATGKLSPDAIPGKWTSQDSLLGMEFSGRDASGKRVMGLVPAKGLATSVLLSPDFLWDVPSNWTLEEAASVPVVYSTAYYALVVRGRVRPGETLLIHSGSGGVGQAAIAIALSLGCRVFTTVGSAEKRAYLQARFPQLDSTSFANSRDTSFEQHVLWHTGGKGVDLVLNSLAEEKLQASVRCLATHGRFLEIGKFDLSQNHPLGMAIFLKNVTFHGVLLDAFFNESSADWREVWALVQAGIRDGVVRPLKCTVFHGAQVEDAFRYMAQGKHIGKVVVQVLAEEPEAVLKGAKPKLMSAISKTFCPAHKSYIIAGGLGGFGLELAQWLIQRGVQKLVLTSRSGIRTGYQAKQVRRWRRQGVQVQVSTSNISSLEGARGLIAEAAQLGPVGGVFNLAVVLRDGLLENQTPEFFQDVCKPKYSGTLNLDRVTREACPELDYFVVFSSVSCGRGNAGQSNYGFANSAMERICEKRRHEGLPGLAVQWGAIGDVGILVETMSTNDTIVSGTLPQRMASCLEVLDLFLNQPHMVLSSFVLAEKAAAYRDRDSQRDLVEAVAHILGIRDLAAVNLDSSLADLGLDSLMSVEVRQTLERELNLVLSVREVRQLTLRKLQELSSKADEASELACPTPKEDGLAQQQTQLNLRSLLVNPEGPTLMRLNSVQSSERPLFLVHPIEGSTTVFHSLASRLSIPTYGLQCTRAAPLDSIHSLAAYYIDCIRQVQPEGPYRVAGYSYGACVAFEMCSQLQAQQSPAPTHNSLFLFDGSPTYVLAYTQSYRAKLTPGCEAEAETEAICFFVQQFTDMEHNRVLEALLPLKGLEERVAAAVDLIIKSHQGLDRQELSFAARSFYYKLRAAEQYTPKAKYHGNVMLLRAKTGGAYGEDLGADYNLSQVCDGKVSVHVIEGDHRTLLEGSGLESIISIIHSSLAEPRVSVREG
UniProt Q01082: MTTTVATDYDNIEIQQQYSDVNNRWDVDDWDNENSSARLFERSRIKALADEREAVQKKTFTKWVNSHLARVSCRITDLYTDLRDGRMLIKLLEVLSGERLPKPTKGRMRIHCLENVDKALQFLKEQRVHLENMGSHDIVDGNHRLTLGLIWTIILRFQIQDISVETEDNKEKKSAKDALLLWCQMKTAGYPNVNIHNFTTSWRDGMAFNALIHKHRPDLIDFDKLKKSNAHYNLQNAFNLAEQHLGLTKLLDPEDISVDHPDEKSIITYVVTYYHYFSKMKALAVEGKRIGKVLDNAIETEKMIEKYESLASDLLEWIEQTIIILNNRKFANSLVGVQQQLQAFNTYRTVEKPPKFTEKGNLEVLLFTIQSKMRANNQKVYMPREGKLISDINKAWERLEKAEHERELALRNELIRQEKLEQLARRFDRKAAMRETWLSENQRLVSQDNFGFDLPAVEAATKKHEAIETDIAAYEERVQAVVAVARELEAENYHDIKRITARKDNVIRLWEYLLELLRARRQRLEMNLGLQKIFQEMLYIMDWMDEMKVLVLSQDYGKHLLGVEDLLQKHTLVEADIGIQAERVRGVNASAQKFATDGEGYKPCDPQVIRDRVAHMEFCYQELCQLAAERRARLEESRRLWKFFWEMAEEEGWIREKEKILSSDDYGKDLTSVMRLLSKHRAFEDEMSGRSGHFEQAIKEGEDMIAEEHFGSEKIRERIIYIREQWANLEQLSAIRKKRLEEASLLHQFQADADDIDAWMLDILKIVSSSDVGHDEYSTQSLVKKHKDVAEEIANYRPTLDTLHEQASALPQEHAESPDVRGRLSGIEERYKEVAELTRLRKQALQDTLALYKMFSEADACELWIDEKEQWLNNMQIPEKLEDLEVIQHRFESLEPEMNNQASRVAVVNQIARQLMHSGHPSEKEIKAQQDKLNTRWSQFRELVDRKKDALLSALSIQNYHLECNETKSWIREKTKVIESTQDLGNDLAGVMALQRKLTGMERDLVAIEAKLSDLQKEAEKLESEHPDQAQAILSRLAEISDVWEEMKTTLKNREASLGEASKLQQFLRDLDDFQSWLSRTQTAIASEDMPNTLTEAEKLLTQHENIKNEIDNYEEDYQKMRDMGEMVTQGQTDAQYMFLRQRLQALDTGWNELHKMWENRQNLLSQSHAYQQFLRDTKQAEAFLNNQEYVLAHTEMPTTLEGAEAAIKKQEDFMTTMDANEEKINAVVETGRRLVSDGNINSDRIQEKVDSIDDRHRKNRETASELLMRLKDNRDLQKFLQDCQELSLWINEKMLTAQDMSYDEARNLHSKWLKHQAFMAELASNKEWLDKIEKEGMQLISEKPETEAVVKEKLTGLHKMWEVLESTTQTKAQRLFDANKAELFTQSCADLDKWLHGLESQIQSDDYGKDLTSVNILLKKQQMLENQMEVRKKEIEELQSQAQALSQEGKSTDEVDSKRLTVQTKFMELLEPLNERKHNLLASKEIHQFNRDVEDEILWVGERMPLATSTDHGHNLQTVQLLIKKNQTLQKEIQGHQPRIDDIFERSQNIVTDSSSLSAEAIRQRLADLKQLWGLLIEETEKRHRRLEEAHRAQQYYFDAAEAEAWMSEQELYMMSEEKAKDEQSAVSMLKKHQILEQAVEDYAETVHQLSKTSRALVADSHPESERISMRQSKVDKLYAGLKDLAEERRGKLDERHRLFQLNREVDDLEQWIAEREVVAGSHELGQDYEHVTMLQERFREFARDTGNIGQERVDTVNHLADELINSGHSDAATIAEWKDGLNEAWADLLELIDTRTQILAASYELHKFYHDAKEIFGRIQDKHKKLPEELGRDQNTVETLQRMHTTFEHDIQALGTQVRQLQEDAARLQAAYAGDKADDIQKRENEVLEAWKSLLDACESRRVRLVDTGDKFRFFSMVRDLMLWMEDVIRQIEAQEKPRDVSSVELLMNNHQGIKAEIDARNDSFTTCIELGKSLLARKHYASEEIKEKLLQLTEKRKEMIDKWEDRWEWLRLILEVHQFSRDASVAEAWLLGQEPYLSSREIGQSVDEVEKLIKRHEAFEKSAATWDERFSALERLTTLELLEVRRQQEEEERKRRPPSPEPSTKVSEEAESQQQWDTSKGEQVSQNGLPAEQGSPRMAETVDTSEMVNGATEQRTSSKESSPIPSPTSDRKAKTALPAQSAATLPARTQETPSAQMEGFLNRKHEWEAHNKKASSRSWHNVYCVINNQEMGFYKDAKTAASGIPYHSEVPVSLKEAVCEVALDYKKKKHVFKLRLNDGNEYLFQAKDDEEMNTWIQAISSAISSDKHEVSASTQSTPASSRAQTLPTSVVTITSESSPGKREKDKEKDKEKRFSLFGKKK

Target: Fatty acid synthase (human (endogenous in HepG2 and SMMC7721)) (UniProt P49327)
Experiment: co-IP; 1 mg whole cell lysate of HepG2 or SMMC7721 cells with 2 µg FASN antibody overnight at 4 °C, Protein A/G agarose beads; western blot; normal rabbit IgG and beads as negative controls

binding: binds
Substance: Spectrin beta chain, non-erythrocytic 1 (from UniProt Q01082 1-2364)
